Here are results for six molecules from article PMC8536318.

The chains behind the UniProt entries cited, without tags or fusion partners. Where a name states a change or a piece, a line headed by the entry shows the natural chain unless it says otherwise.
UniProt Q96LZ3: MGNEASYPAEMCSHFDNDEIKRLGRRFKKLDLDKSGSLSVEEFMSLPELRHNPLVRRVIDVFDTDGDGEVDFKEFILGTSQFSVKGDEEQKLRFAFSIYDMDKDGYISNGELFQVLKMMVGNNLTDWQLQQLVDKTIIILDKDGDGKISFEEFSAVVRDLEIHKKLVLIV
UniProt P48455: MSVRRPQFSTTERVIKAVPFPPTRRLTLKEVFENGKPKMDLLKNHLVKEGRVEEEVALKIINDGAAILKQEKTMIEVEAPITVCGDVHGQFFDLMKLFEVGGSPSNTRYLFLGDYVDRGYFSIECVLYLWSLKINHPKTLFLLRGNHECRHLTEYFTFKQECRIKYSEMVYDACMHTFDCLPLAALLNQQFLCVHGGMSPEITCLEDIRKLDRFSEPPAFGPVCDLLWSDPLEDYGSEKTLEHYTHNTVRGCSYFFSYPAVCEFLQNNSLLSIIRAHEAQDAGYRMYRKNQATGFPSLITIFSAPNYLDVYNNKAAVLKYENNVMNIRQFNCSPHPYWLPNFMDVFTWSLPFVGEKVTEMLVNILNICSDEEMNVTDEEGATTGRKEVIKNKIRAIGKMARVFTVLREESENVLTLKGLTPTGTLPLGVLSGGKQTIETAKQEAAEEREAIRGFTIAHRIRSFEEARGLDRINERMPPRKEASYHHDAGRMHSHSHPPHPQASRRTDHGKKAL
UniProt Q63811: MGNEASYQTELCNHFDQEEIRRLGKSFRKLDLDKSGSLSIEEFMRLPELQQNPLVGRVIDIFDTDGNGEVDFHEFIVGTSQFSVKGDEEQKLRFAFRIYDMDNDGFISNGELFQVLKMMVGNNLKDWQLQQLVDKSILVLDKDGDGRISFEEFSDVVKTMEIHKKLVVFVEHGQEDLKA
UniProt Q9DCC8: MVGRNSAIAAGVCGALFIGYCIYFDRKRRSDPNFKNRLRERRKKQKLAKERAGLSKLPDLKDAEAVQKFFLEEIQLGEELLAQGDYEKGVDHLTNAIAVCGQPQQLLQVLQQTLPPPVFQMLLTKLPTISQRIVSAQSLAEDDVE

No constants are given. Whether binding was seen depends on the method and setting. Binding seen in cells or lysates may run through a third protein. Some binding calls cover weakened binding; strength is not graded here. For part of these data: Tags and fused reporters may be left off the sequences shown.

The target in assay [1] is T1, SPATA33-PA expressed in the testis of Spata33-PA transgenic mice (mouse) (UniProt Q8C624).
T1 sequence: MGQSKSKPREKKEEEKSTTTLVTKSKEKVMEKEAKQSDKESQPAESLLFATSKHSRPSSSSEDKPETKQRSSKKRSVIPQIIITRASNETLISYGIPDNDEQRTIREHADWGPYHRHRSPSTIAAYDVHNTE
The assay can be described thus: co-IP; testis lysates of SPATA33-PA TG mice; IP with anti-PA antibody on Dynabeads; Western blot.

For assay [2], the target named is T2, PA-tagged SPATA33 (mouse, wild type, PQIIIT sequence) (mouse) (UniProt Q8C624).
T2 sequence: T1 sequence
The assay can be described thus: co-IP; reciprocal immunoprecipitation, HEK293T cells coexpressing sperm calcineurin and SPATA33 (PQIIIT or PQIIAT); SPATA33 precipitated (SI Appendix, Fig. S6A).

Assay [3] addresses human sperm calcineurin (human) (UniProt P48454+Q96LZ3). The assay can be described thus: co-IP; HEK293T cells coexpressing human calcineurin (sperm or somatic) and human SPATA33 (SI Appendix, Fig. S6C); bait not given.
Assay [4] addresses sperm calcineurin (FLAG-tagged PPP3CC coexpressed with PPP3R2) (mouse (by the mouse gene notation Ppp3cc) | mouse (by the mouse gene notation Ppp3r2)) (UniProt P48455+Q63811). The assay can be described thus: co-IP; HEK293T cells coexpressing Spata33-PA (or mutant) and Ppp3cc-FLAG/Ppp3r2; lysis in 1% Triton X-100, 50 mM NaCl, 20 mM Tris HCl pH 7.4; IP with FLAG M2 antibody on Dynabeads, 60 min at 4 °C; Western blot. (A western blot detects proteins with antibodies after separation by electrophoresis.)

Assay [5] concerns the target sperm calcineurin with FLAG-tagged PPP3CC, from the testis of Ppp3cc-FLAG transgenic mice (mouse (by the mouse gene notation Ppp3cc) | mouse (endogenous in testis)) (UniProt P48455+Q63811). The assay can be described thus: co-IP; testis lysates of Ppp3cc-FLAG TG mice; IP with anti-FLAG antibody on Dynabeads; Western blot.

Regarding “TOM20, mitochondrial outer membrane protein (from UniProt Q9DCC8 1-145)”, in assay [1], the binding entry is “no binding”. For the molecule “sperm calcineurin (FLAG-tagged PPP3CC coexpressed with PPP3R2) (from UniProt P48455 1-513; Q63811 1-179) (complex)”, the binding result in assay [2] is listed as “binds”.

“human SPATA33 (from UniProt Q96N06 1-139)”: in assay [3], the binding result is “binds”. As to “sperm calcineurin (PPP3CC with PPP3R2), endogenous in mouse testis (from UniProt P48455 1-513; Q63811 1-179) (complex)”, the binding entry in assay [1] is given as “binds”.

B1: PA-tagged SPATA33 (mouse, wild type, PQIIIT sequence) (protein, UniProt Q8C624 1-132)
chain: T1 sequence
B1: the binding entry in assay [4] was “binds”.

B2: SPATA33, endogenous in mouse testis (protein, UniProt Q8C624 1-132)
chain: T1 sequence
B2: in assay [5], the binding result is listed as “binds”.
